Measured values: patent US20120208867

Biological target: T1, HMGB1 (no His-tag) (UniProt P09429)
T1 sequence (looked up, limits assumed): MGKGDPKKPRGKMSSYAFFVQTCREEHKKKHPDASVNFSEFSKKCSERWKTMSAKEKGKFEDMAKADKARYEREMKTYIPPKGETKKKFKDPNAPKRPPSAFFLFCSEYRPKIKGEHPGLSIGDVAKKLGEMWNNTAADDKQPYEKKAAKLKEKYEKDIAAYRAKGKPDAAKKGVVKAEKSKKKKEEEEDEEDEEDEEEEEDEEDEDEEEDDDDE
Assay: pull-down
Conditions: dose-dependently inhibits HMGB1 binding to His-TLR-2; 1-4 ug RNA, 4 C; purified recombinant protein; variant of R8c6_1

GGGAGUACAGUAAGACACGUAGCACCAGUCUGACGUUUGUCGUCAGUGCCUGGACGUGCAGU [R8c6_1-18]
functional effect of the aptamer: active

Tags and fusion partners may be left off the protein sequences shown.
